# Assay results

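Luminescence from an EWS-FLI1 target-promoter (NR0B1) reporter, set against a CMV-promoter reporter, two days after silencing single genes in TC32 Ewing sarcoma cells. Each siRNA was applied at 20 nM. A z-score of the log NR0B1-over-CMV signal, less the median of siRNAs with the same seed; more negative means a stronger specific loss of the NR0B1 reporter.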

The strongest results of the screen are mostly left out here. Sequences are the guide (antisense) strand, without overhang.

| # | siRNA | gene | seed-corrected z-score |
|---|---|---|---|
| 1 | `AAUGGGCUCCUCCUGUUUC` | C1QL4 | 0.7543 |
| 2 | `UCUGGUAUCAACUCAUCAC` | HSP90AB1 | 0.06751 |
| 3 | `UUGCGUUGUACCAAGGUCU` | SH2D3C | -0.04973 |
| 4 | `UUUGCCACCAUGACUCCCU` | RPS10P9 | -0.1711 |
| 5 | `AGUGCUUAAAGAGUCCUGG` | SFMBT1 | -1.301 |
| 6 | `UCAUGCAUGUCCAUCAUCC` | BCL7A | -0.1622 |
| 7 | `UCGUUAGUAAAUCACACCC` | MGC70870 | -0.115 |
| 8 | `UAGGUGGUAACGAAUAAGG` | SLC44A1 | -1.165 |
| 9 | `UCAUCUUCCAGCUCGCCCA` | CILP2 | 1.104 |
| 10 | `AACUGGAACAGGACAACUU` | ANO8 | -0.5175 |
| 11 | `UUGUGCAUCCAAAAGAAUC` | BNIP3L | 0.7929 |
| 12 | `GUCCUUCCAAAACUGGUUU` | ALG1L | -1.481 |
| 13 | `UGGAAAUCCUUGAUGGAUG` | TMEM125 | 0.2175 |
| 14 | `UCUGUUACAUUUCGUAUGG` | SRBD1 | -0.00435 |
| 15 | `AAACUUUACACCAACAUGU` | SAPCD1 | 1.505 |
| 16 | `UUGCUUAAAAUUCCAGCCC` | ALDH1L2 | -0.06911 |
| 17 | `UCAAUGAUCAUAGCAAAGG` | PCBP2 | 0.3058 |
| 18 | `UGUGCGUCAAACUUCAUCC` | PCK1 | 0.1153 |
| 19 | `UUCGCACACAGAGAUAUCG` | COX6B1 | 0.3162 |
| 20 | `UGGAGUUUUAGCCUCUGCC` | IQCF1 | 0.7303 |
| 21 | `UAUAGGAUCCCUGUAUUGG` | PCDHGA4 | 0.5348 |
| 22 | `UAUUCUGUCAGGAACCCUG` | MAPK1 | -0.3651 |
| 23 | `AGAGCUUUUUCAUACAUCC` | TTC19 | -0.04335 |
| 24 | `UUCAUGUUGCCUCAUAUCC` | WDR55 | -0.0584 |
| 25 | `AAUCGCUCUGUGAAUAUUC` | HOXB4 | -0.5329 |
| 26 | `UCCUGAAUAAUCUGAUUCC` | TYMS | 0.3241 |
| 27 | `UCAGUGCAGCAAGAUUUGC` | RPL32P19 | -0.2985 |
| 28 | `UUGGGAGAUGGGUAGCUAG` | ESPNP | -0.4697 |
| 29 | `UCCCGGUAAACAAAGGUCC` | SSPN | 0.3386 |
| 30 | `UCGGGUAGGAGAGUGUUGG` | SSR4P1 | 3.399 |
| 31 | `AAUCUUAAAAUUUAGACUC` | RSPO1 | 0.7379 |
| 32 | `UCGGUCAAAACAUUCCUGC` | C21orf33 | 0.8814 |
| 33 | `AUAGGUGAAAUUUCCACUC` | IFNAR2 | 0.4178 |
| 34 | `AUAGUUAGGAUUAUCGACC` | CLGN | -0.1987 |
| 35 | `UAGCAGACAACCUCAUGGG` | HMGN2P20 | -0.1427 |
| 36 | `UGCUUGAAGAAUCCUCUGC` | TCOF1 | -0.5443 |
| 37 | `UAUUGGUGAAAGACUCAGC` | CCNO | 0.3649 |
| 38 | `UUGGUGUAGACUGUUCAGG` | CLVS2 | 0.3393 |
| 39 | `UUAGAAAGUUGUGAUCAGG` | LINC01565 | -1.631 |
| 40 | `UUUUUGCGGAGAAAAUGCG` | HSFX1 | 0.08727 |
| 41 | `UUCUUUUUGAUCCUUACAC` | ZNF682 | -0.146 |
| 42 | `UCAUCGAUACAGCAGAUGC` | MCM4 | 0.03324 |
| 43 | `AAGAUUCUUAAUCAUUUGC` | KRTAP9-9 | 0.8185 |
| 44 | `UCUCAUAGAAGGACAGUCG` | NOP56 | 0.3186 |
| 45 | `UAUGGACUGAAUUACGCAC` | ERICH1-AS1 | 0.15 |
| 46 | `UGUGGAUUGAGCAAUAAGC` | ZNHIT3 | 0.05598 |
| 47 | `UUUCAUAAUGGGCUUUUUC` | MAGEB3 | 0.2004 |
| 48 | `UGUCGAAGUAGUGCAAAGG` | ST3GAL5 | 0.08453 |
| 49 | `UUCUCUAUCCUCACGCAGC` | LINC00479 | 0.5048 |
| 50 | `AUAGUCAUUAUCGAUUUCC` | FAT2 | 0.1905 |
| 51 | `AAAACUACCUGGGUGUUGC` | EIF4A1 | 2.045 |
| 52 | `UGAUCAACCAGGGUGAUAG` | SDHAF1 | 0.6333 |
| 53 | `UGUUGAAAUAAACUCAAUC` | GGH | 0.5265 |
| 54 | `UUUUCUGCGUCUGACCUGG` | MBD3L2 | -0.4342 |
| 55 | `AGUCCAACCACCUUGUUCC` | LOC729810 | 0.003422 |
| 56 | `UCUUUCACCAGGGUAACAC` | VNN2 | 1.245 |
| 57 | `UUUUUCUGCACUGUUCUCU` | NR4A3 | -0.7995 |
| 58 | `UGUUGUUCAUCCUUCAUCU` | EPSTI1 | -0.1487 |
| 59 | `UCUAGUAUGUCGAUCAACG` | CEP290 | 0.8751 |
| 60 | `UCAAUGGUCUGGGACAGGC` | KLC4 | -0.5013 |
| 61 | `AAGGUGGUAAAUAAAGAGG` | CELF2 | -0.3349 |
| 62 | `AUAGAUCUUGUCAUCCUCC` | RNF113A | -0.6529 |
| 63 | `UGGACUGAAAUUCUAGCCC` | RANBP3L | 0.0876 |
| 64 | `UCAUUCACAGCGAAGAGGG` | RHCG | 0.6779 |
| 65 | `UCACGUGUCCCUUCCACAC` | RNF187 | -0.4003 |
| 66 | `UCCCAGAAAACUAAUGUUC` | LOC728061 | 0.3778 |
| 67 | `UUAUUAGCGAAGAACAUCU` | DNMT3A | -0.4497 |
| 68 | `AACUAGCAAAGGAACAUUG` | CTNNA2 | 0.6461 |
| 69 | `UAUACUACCAAGUUGCUCC` | MYO3A | 0.3569 |
| 70 | `UACCCAAUGAUGUAUAACC` | ACER3 | 0.3897 |
| 71 | `AUUCGUAUGACUCUUACUG` | ARMC4 | 0.03277 |
| 72 | `UAUAGAUUUAUAGUCUUCC` | TTC1 | -0.4181 |
| 73 | `UCAUUUGUCGCUUCUGCAC` | TXK | -0.4823 |
| 74 | `AAGGACAUAAAUUCGCUAC` | LIPN | 0.1374 |
| 75 | `UCUGCGUUUACUUUGGUGC` | TNFRSF11B | -0.8343 |
| 76 | `ACUAUAUUAACACCCAUUU` | FABP2 | 1.104 |
| 77 | `UGCUGUUUGAAGGUCUCUG` | SLC27A3 | 0.4931 |
| 78 | `UAUUGAAGAAGGUGCAGUC` | CIB2 | -0.9997 |
| 79 | `UCCGAGAAUAUAUAAAAGG` | GPR75 | -0.008549 |
| 80 | `UGCAUUUCAGGAUUGAUGU` | TFEB | -1.182 |
| 81 | `UGUUCACUAUGACUCCUGC` | RPL23 | -1.641 |
| 82 | `AGAAGUAACAUCUCUUUUG` | FSIP2 | 0.8329 |
| 83 | `AAAGUAGACGCGUGGUCCU` | PPP1R14B | -0.4963 |
| 84 | `AUAAUUAUUAAACCACUCC` | GINS1 | -1.062 |

The last 8 entries again:

{"sirna": "UGCUGUUUGAAGGUCUCUG", "gene": "SLC27A3", "seed-corrected z-score": "0.4931"}
{"sirna": "UAUUGAAGAAGGUGCAGUC", "gene": "CIB2", "seed-corrected z-score": "-0.9997"}
{"sirna": "UCCGAGAAUAUAUAAAAGG", "gene": "GPR75", "seed-corrected z-score": "-0.008549"}
{"sirna": "UGCAUUUCAGGAUUGAUGU", "gene": "TFEB", "seed-corrected z-score": "-1.182"}
{"sirna": "UGUUCACUAUGACUCCUGC", "gene": "RPL23", "seed-corrected z-score": "-1.641"}
{"sirna": "AGAAGUAACAUCUCUUUUG", "gene": "FSIP2", "seed-corrected z-score": "0.8329"}
{"sirna": "AAAGUAGACGCGUGGUCCU", "gene": "PPP1R14B", "seed-corrected z-score": "-0.4963"}
{"sirna": "AUAAUUAUUAAACCACUCC", "gene": "GINS1", "seed-corrected z-score": "-1.062"}

Source: PubChem BioAssay AID1159506 (NCATS, 2015).